Literature values as cited in patent US20250114377A1, “TWO-PRONGED TREATMENT FOR NIEMANN PICK TYPE C DISEASE” (UNIVERSITY OF NOTRE DAME DU LAC, priority 2022, published 2025).

Settings: mice harboring a transgene for Cyp27a; personal communication; cited from earlier work

C[C@@H](CO)CCC[C@@H](C)[C@H]1CC[C@H]2[C@@H]3CC=C4C[C@@H](O)CC[C@]4(C)[C@H]3CC[C@]12C [27-HC, 27-hydroxycholesterol]
Blood levels of 27-HC: ~500 ng/mL
Blood levels of 27-HC, fold higher than normal: 5 ×
